Data as given in PubChem BioAssay AID1224830 (NIAID, 2016).
Purpose: 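Genes whose knock-down alters the TNF-alpha reporter response to LPS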 (primary screen). Cell system: human THP-1 monocytic leukaemia cells, TNF dual-luciferase reporter clone, PMA-differentiated to macrophage-like cells. Knock-down reagent: siRNA pool against human genes, 50 nM. Duration: LPS for 4 h, given about 3 days after siRNA transfection. Treatment: bacterial LPS (TLR4 ligand), 10 ng/ml. Measurement: 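Ratio of firefly to renilla light, scaled to the plate median and expressed as a robust z-score per replicate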. Scale: TNF reporter robust z-score: higher = stronger TNF reporter response to LPS. Hit rule: 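Each well counts as active if its z-score is over 2.8 or under -1.5; controls are left without a call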.
Shown is one part, drawn at random, of about 18,000 deposited reagents. About 2,900 of all reagents (16%) were called active. 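Calls are made per well; low scores hint the gene aids the LPS response, high scores that it dampens it.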 Unmarked entries are inactive. Repeated entries: four replicate wells of each siRNA pool.

KRTAP19-2 → TNF reporter robust z-score: 0.5
KRTAP19-2 → TNF reporter robust z-score: 0.7
KRTAP19-2 → TNF reporter robust z-score: 0.18
KRTAP19-2 → TNF reporter robust z-score: 0.77
POC1A → TNF reporter robust z-score: 0.76
POC1A → TNF reporter robust z-score: 0.08
POC1A → TNF reporter robust z-score: 0.03
POC1A → TNF reporter robust z-score: 0.13
SYNDIG1 → TNF reporter robust z-score: -0.89
SYNDIG1 → TNF reporter robust z-score: -1.72 (active)
SYNDIG1 → TNF reporter robust z-score: -1.51 (active)
SYNDIG1 → TNF reporter robust z-score: -1.47
TPM1 → TNF reporter robust z-score: 1.42
TPM1 → TNF reporter robust z-score: 1.22
TPM1 → TNF reporter robust z-score: 0.54
TPM1 → TNF reporter robust z-score: 1.02
SLC2A4RG → TNF reporter robust z-score: -1.12
SLC2A4RG → TNF reporter robust z-score: -0.22
SLC2A4RG → TNF reporter robust z-score: -0.65
SLC2A4RG → TNF reporter robust z-score: -0.21
CD200R1 → TNF reporter robust z-score: 0.47
CD200R1 → TNF reporter robust z-score: 1.34
CD200R1 → TNF reporter robust z-score: 2.65
CD200R1 → TNF reporter robust z-score: 1.59
PDE2A → TNF reporter robust z-score: 3.97 (active)
PDE2A → TNF reporter robust z-score: 4.04 (active)
PDE2A → TNF reporter robust z-score: 1.72

Continued (4 carried over from the part before).
CD200R1 → TNF reporter robust z-score: 1.59
PDE2A → TNF reporter robust z-score: 3.97 (active)
PDE2A → TNF reporter robust z-score: 4.04 (active)
PDE2A → TNF reporter robust z-score: 1.72
NHLRC3 → TNF reporter robust z-score: 5.34 (active)
NHLRC3 → TNF reporter robust z-score: 1.04
NHLRC3 → TNF reporter robust z-score: 0.17
NHLRC3 → TNF reporter robust z-score: -0.57
EID2 → TNF reporter robust z-score: 0.98
EID2 → TNF reporter robust z-score: 0.18
EID2 → TNF reporter robust z-score: 0.07
EID2 → TNF reporter robust z-score: -0.22
ANXA2 → TNF reporter robust z-score: -0.41
ANXA2 → TNF reporter robust z-score: -0.1
ANXA2 → TNF reporter robust z-score: -0.9
ANXA2 → TNF reporter robust z-score: -0.88
SPMIP3 → TNF reporter robust z-score: -0.05
SPMIP3 → TNF reporter robust z-score: 0.7
SPMIP3 → TNF reporter robust z-score: 1.05
SPMIP3 → TNF reporter robust z-score: -1.04
SNTB2 → TNF reporter robust z-score: 0.12
SNTB2 → TNF reporter robust z-score: 1.24
SNTB2 → TNF reporter robust z-score: 0.67
SNTB2 → TNF reporter robust z-score: 1.46
